In this assay the test system is RAW 264.7. The assay is described as follows: HMGB1-induced TNF-alpha production relative to HMGB1-stimulated control; higher = more TNF-alpha secretion (less inhibition). Conditions: stimulus: HMGB1 5 ug/ml, 18 h.
The mark [1] stands for this setting: compound concentration: 1 ug/ml.

Values joined by “and” are separate entries in the source; they are usually repeats but may differ in a detail not shown here. Equal values may be shown once. Where a name gives a salt, the structure may show the parent alone. ± gives the standard deviation of the averaged measurements. This is one part of the list. Most values come without repeats; read them as rough.

Regarding `Oc1cccc2cccnc12`, the “HMGB1-induced TNF-alpha production” value (compound concentration: 3 uM) came out at 95.2%.
Regarding `COc1ccc(CCN)cc1OC` [Homoveratrylamine], the “HMGB1-induced TNF-alpha production” value (compound concentration: 3 uM) is 94%.
With `CC1=C(O)C(=O)C=C2C1=CC=C1[C@@]2(C)CC[C@@]2(C)[C@@H]3C[C@](C)(C(=O)O)CC[C@]3(C)CC[C@]12C`, under “compound concentration: 3 uM”, the “HMGB1-induced TNF-alpha production” value is -4.18%.
For the molecule `CC[C@@H](C)C(=O)O[C@H]1[C@H](O)[C@H]2[C@@H](CN3C[C@@H](C)CC[C@H]3[C@@]2(C)O)[C@@H]2C[C@]34O[C@]5(O)[C@@H](OC(=O)[C@](C)(O)[C@@H](C)O)CC[C@@]3(C)[C@@H]5[C@@H](OC(C)=O)[C@@H](OC(C)=O)[C@H]4[C@@]21O` (stereo in doubt), the “HMGB1-induced TNF-alpha production” value (compound concentration: 3 uM) was 106%.
Same read-out and setting: the result for `C[N+](C)(C)CC#CCOC(=O)Nc1cccc(Cl)c1` reads 80.9%; that for `CCC(C)C1O[C@]2(C=C[C@@H]1C)C[C@@H]1CC(C/C=C(\C)[C@@H](OC3C[C@H](OC)[C@@H](OC4C[C@H](OC)[C@@H](O)[C@H](C)O4)[C@H](C)O3)[C@@H](C)/C=C/C=C3\COC4[C@H](O)C(C)=CC(C(=O)O1)[C@]34O)O2` (some centres not stated) [Avermectin B1a], 77.5%.
Still for that read-out and setting: the result for `CN1C[C@@H](NS(=O)(=O)N(C)C)C[C@@H]2c3cccc4c3c(cn4C)C[C@H]21` [Mesulergine] reads 97.3%; that for `Oc1ccc2c3c1O[C@H]1c4[nH]c5c(c4C[C@@]4(O)[C@@H](C2)N(CC2CC2)CC[C@]314)C[C@@]1(O)[C@H]2Cc3ccc(O)c4c3[C@@]1(CCN2CC1CC1)[C@H]5O4` [nor-Binaltorphimine dihydrochloride], 111%.
On to `OC1CCCCC1N1CCC(c2ccccc2)CC1` (racemic) [(±)-Vesamicol hydrochloride], for which, for the setting “compound concentration: 3 uM”, the “HMGB1-induced TNF-alpha production” value worked out at 111%.
Still for that read-out and setting: the result for `CCCN1C[C@H](CSC)C[C@@H]2c3cccc4[nH]cc(c34)C[C@H]21` [Pergolide] reads 107%; that for `CCCN1C[C@H](CSC)C[C@@H]2c3cccc4[nH]cc(c34)C[C@H]21` [Pergolide methanesulfonate], 110%.
As for `CCCN1C[C@H](CSC)C[C@@H]2c3cccc4[nH]cc(c34)C[C@H]21` [Pergolide mesylate], the “HMGB1-induced TNF-alpha production” value stood at 55.8% under setting [1] and 73.6% (compound concentration: 3 uM).
`CCCN1C[C@H](CSC)C[C@@H]2c3cccc4[nH]cc(c34)C[C@H]21`: the “HMGB1-induced TNF-alpha production” value (compound concentration: 3 uM) was 80.4% and 59.8%.
For the molecule `CN1CC[C@]23CCCC[C@H]2[C@H]1Cc1ccc(O)cc13`, the “HMGB1-induced TNF-alpha production” value (compound concentration: 3 uM) is 112%.
The same measure, in the same setting: in the case of `CCCCc1ccc(C(=O)O)nc1` [Fusaric acid] it was 86.4%.
For the molecule `CCCCc1ccc(C(=O)O)nc1` [Fusaric acid ; 5-butylpicolinic acid], the “HMGB1-induced TNF-alpha production” value under setting [1] is 57%.
For `N.N.[Cl][Pt][Cl]`, the “HMGB1-induced TNF-alpha production” value (compound concentration: 3 uM) was found to be 112 ± 9.9%.
Still for that read-out and setting: the result for `N.N.[Cl][Pt][Cl]` [Cisplatin] reads 125%.
Same read-out and setting: the result for `C=C(C)[C@@H]1[C@H]2OC(=O)[C@@H]1[C@]1(O)C[C@H]3O[C@]34C(=O)O[C@H]2[C@]14C.CC(C)(O)[C@@H]1[C@H]2OC(=O)[C@@H]1[C@]1(O)C[C@H]3O[C@]34C(=O)O[C@H]2[C@]14C` [Picrotin - Picrotoxinin] reads 102%; that for `COc1ccc2[nH]cc(CCN)c2c1` [5-Methoxytryptamine], 108%; that for `COc1ccc2[nH]cc(CCN)c2c1` [O-Methylserotonin hydrochloride], 92.7%.
Take `C/C=C1/C[N@+]2(C)CC[C@]34C(=C(C=O)[C@H]1C[C@@H]32)Nc1ccccc14`: under setting [1], the “HMGB1-induced TNF-alpha production” value is 79.2%.
For the molecule `Cc1ncc(CNC(=O)N(CCCl)N=O)c(N)n1` [Nimustine hydrochloride], the “HMGB1-induced TNF-alpha production” value (compound concentration: 3 uM) was found to be 113%.
The same measure, in the same setting: the result for `Cc1ncc(CNC(=O)N(CCCl)N=O)c(N)n1` reads 85.2 ± 9.1%.
Same read-out and setting: in the case of `COC(=O)[C@]1(C)CC[C@]2(C)CC[C@]3(C)C4=CC=C5C(=CC(=O)C(O)=C5C)[C@]4(C)CC[C@@]3(C)[C@@H]2C1` it was 6.04%; in that of `C#C[C@]1(O)CC[C@H]2[C@@H]3CCC4=Cc5nc6nc7ccccc7n6cc5C[C@]4(C)[C@H]3CC[C@@]21C`, 85.6%.
The same measure, in the same setting: in the case of `NCCc1cc(O)c(O)cc1O` it was 80.8%; in that of `CCC(=O)O[C@@](Cc1ccccc1)(c1ccccc1)[C@@H](C)CN(C)C` [Levopropoxyphene napsylate], 131%; in that of `CC(C)=CCC[C@]1(C)C=Cc2c(O)c3c(c(CC=C(C)C)c2O1)O[C@]12C(=C[C@@H]4C[C@H]1C(C)(C)O[C@@]2(C/C=C(/C)C(=O)O)C4=O)C3=O`, -3.1%.
As for `NC(CCP(=O)(O)O)C(=O)O` (racemic) [(±)-2-Amino-4-phosphonobutyric acid], for the setting “compound concentration: 3 uM”, the “HMGB1-induced TNF-alpha production” value came to 97.3%.
Regarding `O=C1C[C@@H]2OCC=C3CN4CC[C@]56c7ccccc7N1[C@H]5[C@H]2[C@H]3C[C@H]46` [Strychnine], the “HMGB1-induced TNF-alpha production” value runs as follows: under setting [1], 84%; (compound concentration: 3 uM) 101%.
With `O=C1C[C@@H]2OCC=C3CN4CC[C@]56c7ccccc7N1[C@H]5[C@H]2[C@H]3C[C@H]46`, the “HMGB1-induced TNF-alpha production” value (compound concentration: 3 uM) turned out to be 90.2 ± 8.6%.
As to `N#Cc1nn(-c2c(Cl)cc(C(F)(F)F)cc2Cl)c(N)c1[S+]([O-])C(F)(F)F` (configuration not stated), the “HMGB1-induced TNF-alpha production” value (compound concentration: 3 uM) was 85.5 ± 1.4%.
As to `CC[C@@]1(O)C(=O)OCc2c1cc1n(c2=O)Cc2cc3ccccc3nc2-1` [Camptothecine (S,+)], the “HMGB1-induced TNF-alpha production” value (compound concentration: 3 uM) amounted to 70.3%.
Same read-out and setting: in the case of `CC[C@@]1(O)C(=O)OCc2c1cc1n(c2=O)Cc2cc3ccccc3nc2-1` it was 45.6%.

The values above are taken from the supplement of paper PMC3682954.
